From paper PMC6277087 come the findings set out here.

Sequences of proteins named here, by UniProt entry; tags and fusion partners are left off. A change or cut given only in a name is not applied to a line headed by its entry.
UniProt Q9VAC4: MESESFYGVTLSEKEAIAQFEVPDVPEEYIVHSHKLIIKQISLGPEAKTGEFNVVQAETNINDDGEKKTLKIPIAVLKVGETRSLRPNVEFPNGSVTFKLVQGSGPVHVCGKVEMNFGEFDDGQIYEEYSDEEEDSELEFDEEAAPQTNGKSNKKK

No constants are given. Whether binding was seen depends on the method and setting. For part of these data: Binding can be weak; no strength is given. For part of these data: In cells and extracts the contact can be indirect. For part of these data: Tags and fused reporters may be left off the sequences shown.

Assay [1] addresses T1, Nucleoplasmin-Like Protein (NLP), endogenous (Drosophila (endogenous in Schneider S2 cells)) (UniProt Q27415).
T1 sequence: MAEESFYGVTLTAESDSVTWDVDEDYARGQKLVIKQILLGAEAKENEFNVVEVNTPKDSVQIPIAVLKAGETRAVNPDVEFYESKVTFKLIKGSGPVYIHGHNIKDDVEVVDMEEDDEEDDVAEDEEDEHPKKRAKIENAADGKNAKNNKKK
The experiment in a line: SEC; total S2 cell extract on Superdex200 10/300 GL in 50 mM Tris-HCl pH 8, 150 mM NaCl, 1 mM EDTA, 1% reduced Triton X-100; fractions blotted with anti-NLP and anti-NPH.

The target in assay [2] is T2, NLP F6E/I62E/V79E triple mutant, V5-tagged (Drosophila) (UniProt Q27415).
T2 sequence: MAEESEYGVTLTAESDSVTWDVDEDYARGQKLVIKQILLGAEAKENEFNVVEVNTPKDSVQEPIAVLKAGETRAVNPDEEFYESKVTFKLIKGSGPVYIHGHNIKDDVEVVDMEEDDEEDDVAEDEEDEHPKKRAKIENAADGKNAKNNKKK
In words: co-IP; S2 cells co-transfected with V5- and HA-tagged constructs; nuclear lysate with Benzonase, 300 mM then 150 mM NaCl, 0.5% IGEPAL CA-630; rabbit anti-V5 antibody and Protein A Dynabeads; western blot with anti-V5 and anti-HA.

The target in assay [3] is T3, Nucleoplasmin-Like Protein, V5-tagged (NLP-V5) (Drosophila) (UniProt Q27415).
T3 sequence: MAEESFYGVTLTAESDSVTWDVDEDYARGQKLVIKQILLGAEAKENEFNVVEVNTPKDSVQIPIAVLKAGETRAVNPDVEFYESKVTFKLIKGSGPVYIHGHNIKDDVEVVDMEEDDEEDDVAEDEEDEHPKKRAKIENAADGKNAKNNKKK
The assay is described as above.

Assay [4] concerns the target T4, NLP I62E, V5-tagged (Drosophila) (UniProt Q27415).
T4 sequence: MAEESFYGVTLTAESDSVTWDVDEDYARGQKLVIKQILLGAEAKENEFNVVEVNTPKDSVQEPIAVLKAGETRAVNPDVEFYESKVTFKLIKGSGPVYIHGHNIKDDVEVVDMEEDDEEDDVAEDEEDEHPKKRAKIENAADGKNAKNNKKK
The assay is described as above.

The target of assay [5] is T5, NLP F6E, V5-tagged (Drosophila) (UniProt Q27415).
T5 sequence: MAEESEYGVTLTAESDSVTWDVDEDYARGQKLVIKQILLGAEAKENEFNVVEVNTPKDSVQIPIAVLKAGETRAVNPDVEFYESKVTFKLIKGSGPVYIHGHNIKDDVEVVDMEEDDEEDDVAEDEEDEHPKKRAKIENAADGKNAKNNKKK
The assay is described as above.

Assay [6] has as its target T6, NLP V79E, V5-tagged (Drosophila) (UniProt Q27415).
T6 sequence: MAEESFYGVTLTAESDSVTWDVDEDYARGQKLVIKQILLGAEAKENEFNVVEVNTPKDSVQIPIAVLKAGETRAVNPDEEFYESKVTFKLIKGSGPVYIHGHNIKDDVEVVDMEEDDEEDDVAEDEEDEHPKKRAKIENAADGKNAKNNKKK
Described as above.

In assay [7] the target is T2, NLP F6E/I62E/V79E triple mutant, V5-tagged (Drosophila). In words: co-IP; S2 cells transfected with V5-tagged constructs; nuclear lysate with Benzonase, 300 mM then 150 mM NaCl, 0.5% IGEPAL CA-630; Anti-V5 Agarose Affinity Gel overnight at 4°C; endogenous HMR detected by western blot. (A western blot detects proteins with antibodies after separation by electrophoresis.)

The target in assay [8] is T3, Nucleoplasmin-Like Protein, V5-tagged (NLP-V5) (Drosophila). Described as above.
Assay [9] concerns the target T4, NLP I62E, V5-tagged (Drosophila). Described as above.
Assay [10] addresses T5, NLP F6E, V5-tagged (Drosophila). The description is as above.
In assay [11] the target is T6, NLP V79E, V5-tagged (Drosophila). Described as above.
Assay [12] concerns the target Nucleophosmin, V5-tagged (NPH-V5) (Drosophila) (UniProt Q9VAC4). In words: co-IP; S2 cells co-transfected with V5- and HA-tagged constructs; nuclear lysate with Benzonase, 300 mM then 150 mM NaCl, 0.5% IGEPAL CA-630; rabbit anti-V5 antibody and Protein A Dynabeads; western blot with anti-V5 and anti-HA.

As for Nucleophosmin (NPH), endogenous, the binding entry in assay [1] is listed as “binds”.
In the case of “Nucleophosmin, HA-tagged (NPH-HA) (from UniProt Q9VAC4)”, the binding result in assay [2] is “no binding”; in assay [3] it was “binds”; in assay [4], “binds weakly”; in assay [5] it was “no binding”; in assay [6] it was “no binding”.
Consider Hybrid Male Rescue (HMR), endogenous, for which the binding result in assay [7] is on record as “no binding”; in assay [8], “binds”; in assay [9], “binds weakly”; in assay [10] it was “no binding”; in [11], “no binding”.

B1: Nucleoplasmin-Like Protein, HA-tagged (NLP-HA) (protein, UniProt Q27415 1-152)
chain: MAEESFYGVTLTAESDSVTWDVDEDYARGQKLVIKQILLGAEAKENEFNVVEVNTPKDSVQIPIAVLKAGETRAVNPDVEFYESKVTFKLIKGSGPVYIHGHNIKDDVEVVDMEEDDEEDDVAEDEEDEHPKKRAKIENAADGKNAKNNKKK
As for B1, the binding result in assay [12] is listed as “binds”.
